Primary screen of a compound library

A: 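Whole-cell assay for inhibitors of Mycobacterium tuberculosis growth, labelled Cornell in the record; the read-out is not stated. The concentration is filed as 10 mM, unlikely as a test dose, so the dose is not known. The record gives no direction; compounds strong in two other growth screens of this library score well above the rest, so higher reads as stronger inhibition. Of about 53,000 compounds tested this way, about 900 (1.7%) reached 50% or more in at least one test.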
B: 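Assay on Mycobacterium tuberculosis, filed only as a heat shock assay from Cornell; the read-out is not stated. The concentration is filed as 10 mM, unlikely as a test dose, so the dose is not known. Higher reads as stronger inhibition (inferred: compounds with an IC50 in retests scored well above the rest). About 69,000 compounds were tested under these conditions; 1.4% (about 930) showed 50% or more at least once.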

The filed quantity is “Percent Effect” (%). How 0% and 100% were set is not recorded. Most values in the screen are low, and negative values occur. This is an unselected part of the compounds tested.

Result for NC(=O)NC1CCN(Cc2ccc3c(c2)CCC3)CC1 was B: -139.9%.
Result for Cc1noc(C)c1CN1CCCC2(C1)CN(c1nncs1)CCO2 (stereo unspecified) was A: -10.11%; B: -0.4005%.
Result for CC1CCN(c2nc3ncc4c(c3c(=O)[nH]2)CC(C)(C)CC4=O)CC1 was A: 40.81%; B: -24.6%.
Result for COc1ccc(NC(=O)Cn2nc(C)c(C)cc2=O)cc1Cl was A: 14.09%; B: 6.693%.
Result for [H][C@]12CC[C@]([H])(CN(C(=O)Cn3c(C)cc(C)nc3=O)C1)N(CC=C(C)C)C2 was A: 7.043%; B: 1.306%.
Result for O=C(O)C(F)(F)F.[H][C@@]12CCN(Cc3ccc(OC)cc3)[C@]1([H])CC[C@H](C(=O)NCC1CC1)O2 was B: -25.68%.
Result for COCCN(C)S(=O)(=O)c1cc(C)cc(F)c1 was A: 1.567%; B: -17.73%.
Result for O=C(c1ccccc1)N1Cc2nccn2CC(Cn2ncccc2=O)C1 (stereo unspecified) was A: 43.05%; B: -17.43%.
Result for Cc1ccc(C)c(OCc2cc(C(=O)N(C)CC(O)CO)no2)c1 (stereo unspecified) was A: -2.168%; B: -7.229%.
Result for [H][C@@]12CCNC[C@]1([H])N(C(=O)C1CCCC1)C2 was B: -6.762%.
Result for COCCN1C(=O)CC(c2cccnc2)C12CCN(C(=O)C1CC1)CC2.O=C(O)C(F)(F)F (stereo unspecified) was A: 6.031%; B: 7.593%.
Result for O=C(CCc1cc2n(n1)CCCNC2)N1CCSCC1 was A: -56.83%; B: -9.407%.
Result for N#Cc1cccc(Cl)c1NC1CCN(CC(N)=O)CC1 was A: 12.18%; B: -8.845%.
Result for O=C(O)C(F)(F)F.O=C(O)C(F)(F)F.[H][C@]12CCCC(N(C)Cc3ccccn3)[C@@]1([H])CN(CC1CC1)C2 (stereo partly specified) was A: -24.69%; B: -1.821%.
Result for CCOCC1CN(Cc2cccnc2OC)Cc2cnn(C)c21.O=C(O)C(F)(F)F.O=C(O)C(F)(F)F.O=C(O)C(F)(F)F (stereo unspecified) was A: 36.25%; B: 0.7896%.
Result for O=C(c1ccccn1)N1CCCC(c2ncncc2-c2ccncc2)C1 (stereo unspecified) was A: 3.613%; B: 0.8198%.
Result for COCCn1cnc2ccc(NC(=O)c3ccc(OC)cc3)cc2c1=O was A: 45.63%; B: 7.06%.
Result for Cc1ccc(CNC2CCCc3c2cnn3C)s1.Cl (stereo unspecified) was B: -18.09%.
Result for CCN(C(=O)CN(C)C(c1cccc(F)c1)c1ccccn1)C1CC1 (stereo unspecified) was A: 10.01%; B: 20.99%.
Result for Oc1nc(N2CCCC2)nc2c1CCN(Cc1cccnc1)CC2 was A: 8.089%; B: -9.368%.
Result for Cc1cccc(CN2CCC(N(C)Cc3nnc(C4CC4)n3C)C2)c1 (stereo unspecified) was A: 17.64%; B: -2.696%.
Result for CC(CN1CCCC1=O)NC(=O)Nc1cccnc1-n1cccn1 (stereo unspecified) was A: -16.53%; B: -21.02%.
Result for CNCC(=O)NC1CC(C)(C)Cc2nc(C(C)(C)C)ncc21 (stereo unspecified) was A: -21.15%; B: -16.53%.
Result for Fc1ccc(CN2CCC(c3nccnc3-n3ccnc3)CC2)cc1 was A: 9.766%; B: -4.531%.
Result for COc1ccccc1Oc1cncc(C2CCCN(CC(N)=O)C2)n1 (stereo unspecified) was A: -19.73%; B: -27.48%.
Result for CCc1nn(C)c(Cl)c1CN1CCCC2(CC1)CN(C)C(=O)O2 (stereo unspecified) was A: -23.25%; B: -27.51%.
Result for O=C(NCc1cccc(F)c1)Nc1ccn(CCN2CCOCC2)n1 was A: -4.646%; B: 9.251%.
Result for Cn1nc(C(=O)NCc2cccc(Cn3ccnc3)c2)ccc1=O was A: 5.852%; B: -11.05%.
Result for O=C(O)C(F)(F)F.[H][C@@]12COC[C@]1(CNC(=O)c1ccco1)CN(Cc1scnc1C)C2 was A: -36.6%; B: 3.882%.
Result for [H][C@@]12CN(Cc3ccc(F)c(F)c3)C[C@]1([H])OCC(=O)N2CC(N)=O was A: 0.8885%; B: -16.45%.
Result for c1ncc(CN2CC(Cc3nccc4cc[nH]c34)C2)cn1 was A: 24.55%; B: -12.31%.
Result for Cc1nc(N[C@H]2COC[C@@H]2N2CCCC2)c2cnn(C)c2n1 was A: 2.791%; B: -27.37%.
Result for Cc1cc(C(=O)NC(C)c2nnn[nH]2)c2ccc(C)c(C)c2n1 (stereo unspecified) was A: 3.826%; B: -20.31%.
Result for O=C1OC2(CCNCC2)CN1CC(=O)N1CCC1c1cccs1 (stereo unspecified) was B: -3.84%.
Result for CC(C)(C)C(=O)N1C[C@@H](F)[C@@H](OCc2nc3ccccc3o2)C1 was A: 16.14%; B: -9.893%.
Result for CN(Cc1cccc(OC(F)F)c1)Cc1nc2c(cnn2C)c(=O)[nH]1 was A: -3.592%; B: -28.78%.
Result for Cc1ccc(S(=O)(=O)c2ncccc2CN2CCN(C)CC2)cc1 was A: -23.93%; B: -27.02%.
Result for CCSCCC(C)N(C)C(=O)c1cc(C)no1 (stereo unspecified) was A: -8.62%; B: 11.18%.
Result for OC(CN1CCN(Cc2nnc(C3CC3)o2)CC1)c1ccccc1 (stereo unspecified) was A: 16.58%; B: 4.764%.
Result for Cc1nc(C2CCCN2C(=O)CN(C)Cc2ccccc2)no1 (stereo unspecified) was A: 10.42%; B: -0.2754%.
Result for CCOc1ncccc1NC(=O)c1ccc(C(C)=O)s1 was A: -6.736%; B: 11.95%.
Result for COc1ccccc1C(=O)N1CCN(C(=O)CCCc2cn[nH]c2)CC1 was A: 7.733%; B: 2.541%.
Result for Cc1nccn1[C@@H]1CC[C@@H](N(C)S(=O)(=O)c2ccc(F)cc2)[C@H]1O was A: 9.444%; B: 0.008551%.
Result for Cn1ncc(N2CCOC(CCNC(=O)N3CCCCC3)C2)cc1=O (stereo unspecified) was A: 10.33%; B: 0.0525%.
Result for CNC(=O)CN1CCc2c(CNc3nccs3)n[nH]c2C1.O=C(O)C(F)(F)F was A: 11.68%; B: -14.08%.

Data taken from ChEMBL document CHEMBL3988442, “University of Dundee, Small-Polar-MMV Screening Library” (2021).